Source: paper PMC4018362
No constants are given. Whether binding was seen depends on the method and setting. Binding can be weak; no strength is given. For some assays here: In cells and extracts the contact can be indirect. For some assays here: Tags and fused reporters may be left off the sequences shown.

What was measured:
[1] = target: T1, THRAP3 fused to the N-terminal half of YFP (UniProt Q9Y2W1); experiment: split reporter; YFP BiFC (THRAP3-YN with YC fusions of nTRIP6 and its variants) in transfected cells (HEK293 by the legend, HeLa by the text), mCherry-NES as transfection control, confocal imaging
T1 sequence: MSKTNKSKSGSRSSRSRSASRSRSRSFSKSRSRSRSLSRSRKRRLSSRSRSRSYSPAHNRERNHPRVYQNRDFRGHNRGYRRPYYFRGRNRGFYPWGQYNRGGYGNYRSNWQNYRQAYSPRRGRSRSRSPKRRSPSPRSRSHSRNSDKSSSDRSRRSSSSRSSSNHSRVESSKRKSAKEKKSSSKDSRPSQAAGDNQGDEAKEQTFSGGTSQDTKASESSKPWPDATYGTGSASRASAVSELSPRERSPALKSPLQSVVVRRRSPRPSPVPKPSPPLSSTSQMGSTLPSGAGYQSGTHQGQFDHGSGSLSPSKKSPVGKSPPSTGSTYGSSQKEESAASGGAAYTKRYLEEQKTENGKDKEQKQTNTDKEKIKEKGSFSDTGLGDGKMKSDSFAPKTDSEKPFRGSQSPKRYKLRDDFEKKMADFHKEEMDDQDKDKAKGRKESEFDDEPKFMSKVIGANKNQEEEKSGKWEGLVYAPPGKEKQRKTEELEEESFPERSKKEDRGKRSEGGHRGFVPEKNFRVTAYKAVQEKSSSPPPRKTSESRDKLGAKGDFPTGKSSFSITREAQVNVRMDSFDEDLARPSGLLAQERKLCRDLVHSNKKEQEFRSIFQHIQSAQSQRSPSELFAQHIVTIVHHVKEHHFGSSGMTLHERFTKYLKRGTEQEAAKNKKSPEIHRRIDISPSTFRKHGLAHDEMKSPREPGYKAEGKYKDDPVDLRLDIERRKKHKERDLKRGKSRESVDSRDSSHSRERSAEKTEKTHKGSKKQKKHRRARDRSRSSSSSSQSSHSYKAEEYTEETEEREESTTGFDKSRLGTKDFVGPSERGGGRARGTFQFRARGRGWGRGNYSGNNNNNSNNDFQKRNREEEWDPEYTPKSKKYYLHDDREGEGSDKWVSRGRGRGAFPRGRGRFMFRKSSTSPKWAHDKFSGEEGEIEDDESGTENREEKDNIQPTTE

[2] = target: T1, THRAP3 fused to the N-terminal half of YFP; experiment: split reporter; competition: YFP BiFC of nTRIP6-YC and THRAP3-YN in HEK293 cells with empty vector or increasing amounts of a GR expression vector
[3] = target: T2, nTRIP6 Dimerization Domain 2 peptide (SPOT membrane); experiment: peptide or protein array; peptide SPOT: 15-mers of the nTRIP6 pre-LIM region shifted by 3 residues on a cellulose membrane, incubated overnight at 4°C with 10 µg/ml purified GST-nTRIP6 in blocking buffer (2% milk powder, 5% sucrose in TBS, pH 8.0), detected with an anti-GST antibody; both purified
T2 sequence (peptide): EDELDRLTKKLVH

[4] = target: T3, nTRIP6 Dimerization Domain 1 peptide (SPOT membrane); experiment: as above
T3 sequence (peptide): AQPVRGCGPPRRG

Substance | binding [1] | further results
nTRIP6 LIM domain 2 mutant fused to YC | binds | –
nTRIP6 LIM domain 3 mutant fused to YC | binds | –
nTRIP6 fused to the C-terminal half of YFP | binds | binding [2]: binds
the LIM domains alone fused to YC (domain or fragment) | binds | –
recombinant nTRIP6 fused to GST | – | binding [3]: binds; binding [4]: binds
nTRIP6 LIM domain 1 mutant fused to YC | binds | –
